Earlier results as cited in US11434242B2, “Dopamine-b-hydroxylase inhibitors” (BIAL-PORTELA & Cª, S.A., priority 2017, dated 2022).
At least one structure is not confirmed: it was looked up by name or label, or the drawing left a doubt.

Test system: DβH
Conditions: literature; cited from earlier work

CCN(CC)C(=S)S [diethyldithiocarbamate]
potency: low potency
selectivity for DβH: poor selectivity for DβH
